Assay results taken from patent US11793794B2, “Combination therapy for treating or preventing depression or other mood diseases” (YALE UNIVERSITY, priority 2018, dated 2023).
At least one compound was matched to its structure with a doubt left.

What was measured:
[1] = tested on: patients with major depression; assay: double-blind placebo-controlled crossover study: rapamycin or placebo 2 hours before ketamine infusion, depression severity (MADRS); format: in vivo, human; conditions: humans, single dose of rapamycin before ketamine
Procedure: The present studies address a longstanding question in the field—whether the antidepressant effects of ketamine depend upon its capacity to stimulate a key protein known as the mechanistic target for rapamycin (mTOR). If that is indeed the case, ketamine's effects should be reduced when mTOR is inhibited. To test this hypothesis, a double-blind placebo-controlled crossover study was conducted under fully randomized conditions, whereby one set of patients was treated with the mTOR inhibitor rapamycin, an FDA approved drug that is currently used to treat certain immune disorders and cancers.
In this design, symptomatic antidepressant-treated patients with major depression who have a history of non-response to at least one prior antidepressant trial were recruited and studied over 3 years. Participants completed two ketamine infusion test days separated by at least two weeks. On each ketamine test day, patients were randomized to take a “loading dose” of rapamycin or placebo 2 hours before receiving an intravenous infusion of ketamine. The primary outcome measure of the study was the severity of depression, as measured by the Montgomery Åsberg Depression Rating Scale (MADRS). […]
Depression severity was assessed at baseline, and at 4 h, 24 h, 1 week, and 2 weeks post treatment. […]

[2] = tested on: non-human animal models of the antidepressant effects of ketamine; conditions: cited from earlier work

CO[C@H]1C[C@@H]2CC[C@@H](C)[C@@](O)(O2)C(=O)C(=O)N2CCCC[C@H]2C(=O)O[C@H]([C@H](C)C[C@@H]2CC[C@@H](O)[C@H](OC)C2)CC(=O)[C@H](C)/C=C(\C)[C@@H](O)[C@@H](OC)C(=O)[C@H](C)C[C@H](C)/C=C/C=C/C=C/1C [rapamycin]
effect of rapamycin on the antidepressant effect of ketamine [1]: augments the therapeutic effects of ketamine
effect of rapamycin on the antidepressant effect of ketamine ([1]; listed as Rapamycin): enhance the antidepressant effect of ketamine
effect of rapamycin on the antidepressant effects of ketamine ([2]; animal studies, single rapamycin dose): blocked the antidepressant effects of ketamine
antidepressant effects of rapamycin alone ([2]; repeated rapamycin administration): may have antidepressant effects
